Where two headings read alike, the source gives them in different places. No constants are given. Whether binding was seen depends on the method and setting. In cells and extracts the contact can be indirect. Here binding means that the protein was enriched with, or labelled near, the bait; the list need not be complete. For part of these data: A no says only that the protein was not detected with the bait. Tags and fused reporters may be left off the sequences shown. Values belong to the molecule of their own block, whether it stands above or below them.
Key:
[1] = biological target: T1, human MGME1-BirA*-HA (mitochondrial genome maintenance exonuclease 1 fused to BirA R118G and HA) (human) (UniProt Q9BQP7); experiment: proximity labelling; BioID: HeLa cells transfected with MGME1-BirA*-HA, 50 uM biotin for 6 h from 24 h after transfection; lysates on streptavidin Dynabeads at 4 C overnight; LC-MS/MS; control mitochondrially targeted BirA* (mt-BirA*)
T1 sequence: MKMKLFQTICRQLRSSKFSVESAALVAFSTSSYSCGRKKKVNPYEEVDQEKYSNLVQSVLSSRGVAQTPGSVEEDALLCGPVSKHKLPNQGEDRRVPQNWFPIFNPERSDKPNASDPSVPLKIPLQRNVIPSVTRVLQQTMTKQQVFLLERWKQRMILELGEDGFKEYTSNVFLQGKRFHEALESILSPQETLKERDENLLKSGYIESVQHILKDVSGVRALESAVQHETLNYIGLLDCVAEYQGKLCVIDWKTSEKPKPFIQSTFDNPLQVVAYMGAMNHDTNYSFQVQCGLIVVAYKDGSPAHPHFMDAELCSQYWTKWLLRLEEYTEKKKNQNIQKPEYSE

Chains of the proteins cited; added tags and fusions are not shown.
UniProt P54098: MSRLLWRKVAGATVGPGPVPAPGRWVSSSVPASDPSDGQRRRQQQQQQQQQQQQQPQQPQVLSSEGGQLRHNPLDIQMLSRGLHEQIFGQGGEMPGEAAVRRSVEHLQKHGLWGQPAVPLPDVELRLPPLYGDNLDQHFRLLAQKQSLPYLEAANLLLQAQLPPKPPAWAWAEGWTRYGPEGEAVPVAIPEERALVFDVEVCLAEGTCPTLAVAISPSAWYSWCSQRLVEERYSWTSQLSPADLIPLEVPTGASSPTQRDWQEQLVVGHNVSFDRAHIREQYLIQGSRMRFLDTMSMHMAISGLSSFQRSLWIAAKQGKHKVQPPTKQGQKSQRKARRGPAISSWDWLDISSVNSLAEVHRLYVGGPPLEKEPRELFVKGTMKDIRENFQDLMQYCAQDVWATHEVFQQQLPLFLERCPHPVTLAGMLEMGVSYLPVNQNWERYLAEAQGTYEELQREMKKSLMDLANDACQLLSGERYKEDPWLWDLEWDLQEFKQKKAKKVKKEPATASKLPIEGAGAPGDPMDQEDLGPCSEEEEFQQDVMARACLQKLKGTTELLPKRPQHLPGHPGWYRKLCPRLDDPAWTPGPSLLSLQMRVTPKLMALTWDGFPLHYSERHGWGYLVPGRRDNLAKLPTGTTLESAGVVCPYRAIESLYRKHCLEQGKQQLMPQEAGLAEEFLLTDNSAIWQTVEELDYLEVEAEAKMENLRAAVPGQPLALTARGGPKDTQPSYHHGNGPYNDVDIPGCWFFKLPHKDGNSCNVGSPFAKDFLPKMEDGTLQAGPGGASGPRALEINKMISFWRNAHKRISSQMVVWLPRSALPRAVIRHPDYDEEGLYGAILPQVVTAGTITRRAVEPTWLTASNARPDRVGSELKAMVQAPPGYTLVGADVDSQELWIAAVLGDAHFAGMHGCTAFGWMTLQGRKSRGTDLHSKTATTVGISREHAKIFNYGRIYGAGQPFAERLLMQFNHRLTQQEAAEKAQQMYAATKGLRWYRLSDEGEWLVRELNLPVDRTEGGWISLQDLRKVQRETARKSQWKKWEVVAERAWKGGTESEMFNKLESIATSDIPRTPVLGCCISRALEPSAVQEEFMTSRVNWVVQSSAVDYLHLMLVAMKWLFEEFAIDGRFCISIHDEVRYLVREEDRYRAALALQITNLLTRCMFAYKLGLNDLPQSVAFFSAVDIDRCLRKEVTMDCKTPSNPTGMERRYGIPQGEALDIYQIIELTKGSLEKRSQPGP

[2] = biological target: T1, human MGME1-BirA*-HA (mitochondrial genome maintenance exonuclease 1 fused to BirA R118G and HA) (human); experiment: as above; remark: listed apart in the source

Molecule: catalytic subunit of the mtDNA polymerase (POLGA) (from UniProt P54098 1-1239) (enzyme)
binding [1]: binds

binding [2]: no binding
B1: methylcrotonyl-CoA carboxylase (MCCC1) (enzyme, UniProt Q96RQ3 42-725)
chain: TTATGRNITKVLIANRGEIACRVMRTAKKLGVQTVAVYSEADRNSMHVDMADEAYSIGPAPSQQSYLSMEKIIQVAKTSAAQAIHPGCGFLSENMEFAELCKQEGIIFIGPPPSAIRDMGIKSTSKSIMAAAGVPVVEGYHGEDQSDQCLKEHARRIGYPVMIKAVRGGGGKGMRIVRSEQEFQEQLESARREAKKSFNDDAMLIEKFVDTPRHVEVQVFGDHHGNAVYLFERDCSVQRRHQKIIEEAPAPGIKSEVRKKLGEAAVRAAKAVNYVGAGTVEFIMDSKHNFCFMEMNTRLQVEHPVTEMITGTDLVEWQLRIAAGEKIPLSQEEITLQGHAFEARIYAEDPSNNFMPVAGPLVHLSTPRADPSTRIETGVRQGDEVSVHYDPMIAKLVVWAADRQAALTKLRYSLRQYNIVGLHTNIDFLLNLSGHPEFEAGNVHTDFIPQHHKQLLLSRKAAAKESLCQAALGLILKEKAMTDTFTLQAHDQFSPFSSSSGRRLNISYTRNMTLKDGKNNVAIAVTYNHDGSYSMQIEDKTFQVLGNLYSEGDCTYLKCSVNGVASKAKLIILENTIYLFSKEGSIEIDIPVPKYLSSVSSQETQGGPLAPMTGTIEKVFVKAGDKVKAGDSLMVMIAMKMEHTIKSPKDGTVKKVFYREGAQANRHTPLVEFEEEESDKRESE
modifications: naturally biotinylated

binding [2]: binds
B2: replicative DNA helicase TWINKLE (enzyme, UniProt Q96RR1 32-684)
chain: APGPPRRRYRKETLQALDMPVLPVTATEIRQYLRGHGIPFQDGHSCLRALSPFAESSQLKGQTGVTTSFSLFIDKTTGHFLCMTSLAEGSWEDFQASVEGRGDGAREGFLLSKAPEFEDSEEVRRIWNRAIPLWELPDQEEVQLADTMFGLTKVTDDTLKRFSVRYLRPARSLVFPWFSPGGSGLRGLKLLEAKCQGDGVSYEETTIPRPSAYHNLFGLPLISRRDAEVVLTSRELDSLALNQSTGLPTLTLPRGTTCLPPALLPYLEQFRRIVFWLGDDLRSWEAAKLFARKLNPKRCFLVRPGDQQPRPLEALNGGFNLSRILRTALPAWHKSIVSFRQLREEVLGELSNVEQAAGLRWSRFPDLNRILKGHRKGELTVFTGPTGSGKTTFISEYALDLCSQGVNTLWGSFEISNVRLARVMLTQFAEGRLEDQLDKYDHWADRFEDLPLYFMTFHGQQSIRTVIDTMQHAVYVYDICHVIIDNLQFMMGHEQLSTDRIAAQDYIIGVFRKFATDNNCHVTLVIHPRKEDDDKELQTASIFGSAKASQEADNVLILQDRKLVTGPGKRYLQVSKNRFDGDVGVFPLEFNKNSLTFSIPPKNKARLKKIKDDTGPVAKKPSSGKKGATTQNSEICSGQAPTPDQPDTSKRSK
